Test system: Male Crl:CD-1 (ICR) BR mice
Test: Radiant heat tail-flick assay after topical drug application to the tail
Type: in vivo
Details: for ED 50 value, propylene glycol and lauric acid: topical, tail immersed 2 min, tested immediately afterward, vehicle propylene glycol and lauric acid (10:1)
Procedure: All in vivo studies were carried out in accordance with the Declaration of Helsinki and with the Guide for Care and Use of Laboratory Animals, as adopted and promulgated by the Estonian Põllumajandusministeerium. Male Crl:CD-1® (ICR) BR mice (20-25 g) were purchased from Charles River Laboratories (Germany) and were housed in a 12:12-h light-dark cycle temperature-controlled room with food and water freely available. Drugs were obtained from Sigma (St. Louis, Mo., USA). […] Briefly, the distal portion of the tail (2-3 cm) was immersed in a propylene glycol/dH2O (10:1 ratio) alone or propylene glycol and lauric acid combination (10:1) solution containing the indicated drugs for the stated time, usually 2 min.). Analgesia was defined quantitatively as tail-flick latency for an individual animal that was twice its baseline latency or greater using tail flick apparatus (Ugo Basile, Italy). […] ED50 values were determined with GraphPad Software.

SMILES	ED 50 value, propylene glycol and lauric acid [mmol]	dose response shift to left of ED50 on addition of lauric acid to propylene glycol [fold]
CCN(CC)CC(=O)Nc1c(C)cccc1C [Lidocaine, lidocaine]	0.35	–
CN1CC[C@]23c4c5ccc(O)c4O[C@H]2[C@@H](O)C=C[C@H]3[C@H]1C5 [Morphine, morphine]	0.4	19
